Results taken from patent publication US10401361B2 (Marker Gene Technologies, Inc., priority 2009, dated 2019).

Assay: peptide synthesis
Conditions: conjugation step
“Rhodamine 110, Mono-3-Maleimidopropionamide, Mono-Cbz-Asp(t-Bu), Conjugated to ER-Targeting Peptide (M2444)” gave a conjugation yield of 57%.
In the case of “Rhodamine 110, Mono-3-Maleimidopropionamide, Mono-Cbz-Asp(t-Bu), Conjugated to Golgi Apparatus-Targeting Peptide (M2445)”, the conjugation yield is reported as 92%.
Work on “Rhodamine 110, Mono-3-Maleimidopropionamide, Mono-Cbz-Asp(t-Bu), Conjugated to Nonsense Peptide (M2453)” yielded a conjugation yield of 100%.
